# Assay results reported in publication PMC8222926.
# Sequences of proteins named here, by UniProt entry; tags and fusion partners are left off. A change or cut given only in a name is not applied to a line headed by its entry.
# UniProt A4D1B5: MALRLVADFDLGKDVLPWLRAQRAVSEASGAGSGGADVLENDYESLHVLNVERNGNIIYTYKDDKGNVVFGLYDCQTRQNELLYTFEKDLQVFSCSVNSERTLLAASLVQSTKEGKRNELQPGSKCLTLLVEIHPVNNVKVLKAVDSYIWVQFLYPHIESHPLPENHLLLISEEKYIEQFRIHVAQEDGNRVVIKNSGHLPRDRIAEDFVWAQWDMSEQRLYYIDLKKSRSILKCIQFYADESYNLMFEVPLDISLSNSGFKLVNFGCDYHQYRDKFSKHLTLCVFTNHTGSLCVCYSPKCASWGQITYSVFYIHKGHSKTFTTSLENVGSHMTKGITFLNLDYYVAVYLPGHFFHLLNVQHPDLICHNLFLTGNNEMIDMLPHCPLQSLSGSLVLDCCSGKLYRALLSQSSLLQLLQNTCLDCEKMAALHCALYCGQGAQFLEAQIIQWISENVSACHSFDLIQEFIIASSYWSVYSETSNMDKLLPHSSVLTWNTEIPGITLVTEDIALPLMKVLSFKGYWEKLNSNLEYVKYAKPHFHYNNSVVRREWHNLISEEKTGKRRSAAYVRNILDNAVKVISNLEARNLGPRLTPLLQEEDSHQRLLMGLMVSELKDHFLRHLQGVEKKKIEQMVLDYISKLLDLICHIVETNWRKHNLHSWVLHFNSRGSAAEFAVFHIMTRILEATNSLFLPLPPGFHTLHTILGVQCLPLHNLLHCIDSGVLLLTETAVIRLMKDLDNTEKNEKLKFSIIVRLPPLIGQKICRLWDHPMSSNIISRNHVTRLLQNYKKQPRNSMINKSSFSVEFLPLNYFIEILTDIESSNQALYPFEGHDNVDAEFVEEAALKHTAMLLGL
# Results are given in words; binding and its absence hold for the method and conditions named. In cells and extracts the contact can be indirect. Some entries that bind do so weakly or less than the wild type. For some assays here: Where a sequence is shown, tags or fusion partners need not be part of it.
# Assays:
# [1] = biological target: T1, full-length Fe65 (Flag-tagged) (UniProt O00213); test: co-IP; transiently transfected tagged proteins (HEK293T or N2a cells); lysis in 1% CHAPSO buffer (50 mM Tris-HCl, 150 mM NaCl, pH 7.4), diluted to 0.25% CHAPSO; primary antibody or IgG control overnight at 4°C, protein G magnetic beads; immunoblot
# T1 sequence: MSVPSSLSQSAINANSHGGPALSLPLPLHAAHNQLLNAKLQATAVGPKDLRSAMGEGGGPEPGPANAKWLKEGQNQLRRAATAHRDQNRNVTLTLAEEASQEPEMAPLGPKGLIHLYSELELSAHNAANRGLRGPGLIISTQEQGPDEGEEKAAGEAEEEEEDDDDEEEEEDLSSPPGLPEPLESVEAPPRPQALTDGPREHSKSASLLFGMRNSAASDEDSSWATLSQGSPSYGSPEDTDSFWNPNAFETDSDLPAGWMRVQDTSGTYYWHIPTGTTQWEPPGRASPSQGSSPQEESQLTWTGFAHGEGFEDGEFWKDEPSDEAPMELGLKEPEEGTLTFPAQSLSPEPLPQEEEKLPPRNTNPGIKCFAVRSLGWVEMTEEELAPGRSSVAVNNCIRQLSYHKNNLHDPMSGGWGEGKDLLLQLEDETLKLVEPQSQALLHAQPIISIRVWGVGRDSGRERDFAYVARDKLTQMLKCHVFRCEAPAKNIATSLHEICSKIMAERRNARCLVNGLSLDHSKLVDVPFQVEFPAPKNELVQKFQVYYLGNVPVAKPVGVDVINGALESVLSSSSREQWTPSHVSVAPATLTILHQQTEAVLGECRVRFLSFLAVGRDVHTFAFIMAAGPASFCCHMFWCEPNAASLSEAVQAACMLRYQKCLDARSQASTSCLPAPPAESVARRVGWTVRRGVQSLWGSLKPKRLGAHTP
# [2] = biological target: T2, endogenous Fe65 (human (endogenous in A549; legend: HEK293T)) (UniProt O00213); test: co-IP; endogenous proteins; Fe65 antibody; lysate of A549 cells (text; the legend says HEK293T); 0.25% CHAPSO; protein G magnetic beads; immunoblot
# T2 sequence: T1 sequence
binding [1],binding [2],Substance
binds,–,human GSAP-16k with HA tag (aa 733–854) (from UniProt A4D1B5 733-854) (domain or fragment)
–,binds,endogenous GSAP (from UniProt A4D1B5 1-854)
